Test results published in publication PMC2719692.
The exact form of at least one protein or probe is not confirmed. For part of these data: Negatives hold for the conditions tested. Tags and fusion partners may be left off the protein sequences shown.

Tests used:
Experiment in all cases: EMSA
Settings in all cases: EMSA: 40 mM NaCl, 5 mM MgCl2, 30 mM Tris-HCl pH 7.6, 2 mM DTT, protease inhibitors, 22 °C 15 min, then RNase T1 (described for CHO extract); 12 fmol RNA in …; recombinant protein; protein details: N-terminal GST; label: 32P (alpha-32P CTP); probe letters rebuilt from the primers and the genome
[1] = target: T1, eEF1α domain I (GST fusion) (rat) (UniProt P62630)
T1 sequence (looked up, limits assumed): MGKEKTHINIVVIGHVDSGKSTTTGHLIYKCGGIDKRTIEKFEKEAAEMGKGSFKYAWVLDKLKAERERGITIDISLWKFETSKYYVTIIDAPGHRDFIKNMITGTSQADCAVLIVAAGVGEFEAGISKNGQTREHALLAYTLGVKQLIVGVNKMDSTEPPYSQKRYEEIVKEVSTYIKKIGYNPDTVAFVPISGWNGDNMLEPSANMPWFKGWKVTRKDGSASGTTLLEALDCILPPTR

[2] = target: T2, eEF1α domain II (GST fusion) (rat) (UniProt P62630)
T2 sequence (looked up, limits assumed): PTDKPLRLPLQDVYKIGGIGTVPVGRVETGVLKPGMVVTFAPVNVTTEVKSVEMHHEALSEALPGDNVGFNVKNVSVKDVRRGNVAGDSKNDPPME

[3] = target: T3, eEF1α domain III (GST fusion) (rat) (UniProt P62630)
T3 sequence (looked up, limits assumed): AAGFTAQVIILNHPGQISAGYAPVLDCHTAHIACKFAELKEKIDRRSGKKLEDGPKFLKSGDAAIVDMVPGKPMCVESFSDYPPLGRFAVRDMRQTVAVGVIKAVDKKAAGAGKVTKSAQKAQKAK

## GGAGUGACGAACAGUGCUGCUGCCCUCAGGUGUAAAUAAUUUCCGGACCAACUCAGAGUCUUGCCGUACACCUCCACCCAGUUUACUAAACCCCGUUUUCUACCGAGCAUGUG [MT-111 (MT-1 3′UTR nt 1-111)]
[1]
  binding result: binds
[2]
  binding result: no binding
[3]
  binding result: binds
